# At least one structure is not confirmed: it was looked up by name or label, or the drawing left a doubt.
smiles,measurement,setting,value
Cc1cc2c(s1)Nc1ccccc1N=C2N1CCN(C)CC1 [olanzapine],total olanzapine released,"control devices, over the study period",< 1 mg
same,release of olanzapine (in words),"in vitro, olanzapine/organic acid 1:2, 15 day test period, FIG. 3B",released drug slowly

# From patent publication US20210000740A1, “COMPOSITIONS FOR SMALL MOLECULE THERAPEUTIC AGENT COMPOUNDS” (Delpor, Inc., priority 2018, published 2021)
